PubChem BioAssay AID1259405 – NCATS, 2018
The deposit covers about 50,000 reagents; below is a random part of them. About 4,000 of them (8%) count as active. 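Mouse siRNA library applied to hamster cells; one well for each siRNA.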 Reagents against one gene are numbered here.

Screen: 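Silenced genes that increase secreted GFP made by CHO cells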 (primary screen)
Cell system: Chinese hamster CHO-K1 ovary cells with stable secreted eGFP expression
Reagents: single siRNA against mouse genes, 0.8 pmol siRNA per well (2 µl of 400 nM stock)
Duration: 3 days
Read-out: 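Percent of the per-plate non-targeting control median for intracellular GFP per well by laser scanning cytometry and for cell viability by ATP luminescence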
Direction: GFP, % of control: higher = more GFP per well, higher productivity; viability (ATP), % of control: higher = more viable cells (more ATP)
Active means: 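a knock-down is called active if GFP reaches 120% or more of non-targeting control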

Mnx1 #1
- GFP, % of control: 111
- viability (ATP), % of control: 103
- Outcome: inactive

Mnx1 #2
- GFP, % of control: 94.8
- viability (ATP), % of control: 101
- Outcome: inactive

Mnx1 #3
- GFP, % of control: 121
- viability (ATP), % of control: 92.2
- Outcome: active

Or1ad1 #1
- GFP, % of control: 98
- viability (ATP), % of control: 87.1
- Outcome: inactive

Or1ad1 #2
- GFP, % of control: 54.6
- viability (ATP), % of control: 36.5
- Outcome: inactive

Or1ad1 #3
- GFP, % of control: 44
- viability (ATP), % of control: 75
- Outcome: inactive

Slc29a4 #1
- GFP, % of control: 89.5
- viability (ATP), % of control: 100
- Outcome: inactive

Slc29a4 #2
- GFP, % of control: 51.4
- viability (ATP), % of control: 62.8
- Outcome: inactive

Slc29a4 #3
- GFP, % of control: 82
- viability (ATP), % of control: 85.7
- Outcome: inactive

B3gat3 #1
- GFP, % of control: 77.3
- viability (ATP), % of control: 78.2
- Outcome: inactive

B3gat3 #2
- GFP, % of control: 89.8
- viability (ATP), % of control: 107
- Outcome: inactive

B3gat3 #3
- GFP, % of control: 90.9
- viability (ATP), % of control: 96.5
- Outcome: inactive

Fem1c #1
- GFP, % of control: 78.3
- viability (ATP), % of control: 80.5
- Outcome: inactive

Fem1c #2
- GFP, % of control: 42.1
- viability (ATP), % of control: 48.8
- Outcome: inactive

Fem1c #3
- GFP, % of control: 93.3
- viability (ATP), % of control: 76.9
- Outcome: inactive

Ebf4 #1
- GFP, % of control: 80.7
- viability (ATP), % of control: 97.5
- Outcome: inactive

Ebf4 #2
- GFP, % of control: 87.1
- viability (ATP), % of control: 79.7
- Outcome: inactive

Ebf4 #3
- GFP, % of control: 107
- viability (ATP), % of control: 50.9
- Outcome: inactive

No new results follow: an excerpt of the list.
Mnx1 #3
- GFP, % of control: 121
- viability (ATP), % of control: 92.2
- Outcome: active

Or1ad1 #1
- GFP, % of control: 98
- viability (ATP), % of control: 87.1
- Outcome: inactive

Or1ad1 #2
- GFP, % of control: 54.6
- viability (ATP), % of control: 36.5
- Outcome: inactive

Or1ad1 #3
- GFP, % of control: 44
- viability (ATP), % of control: 75
- Outcome: inactive

Slc29a4 #1
- GFP, % of control: 89.5
- viability (ATP), % of control: 100
- Outcome: inactive

Slc29a4 #2
- GFP, % of control: 51.4
- viability (ATP), % of control: 62.8
- Outcome: inactive

Slc29a4 #3
- GFP, % of control: 82
- viability (ATP), % of control: 85.7
- Outcome: inactive

Additional reagents:
Brd8 #1
- GFP, % of control: 74
- viability (ATP), % of control: 107
- Outcome: inactive

Brd8 #2
- GFP, % of control: 68.2
- viability (ATP), % of control: 59.3
- Outcome: inactive

Brd8 #3
- GFP, % of control: 131
- viability (ATP), % of control: 132
- Outcome: active

Or5t7 #1
- GFP, % of control: 75.1
- viability (ATP), % of control: 79.6
- Outcome: inactive

Or5t7 #2
- GFP, % of control: 73.8
- viability (ATP), % of control: 71.1
- Outcome: inactive

Or5t7 #3
- GFP, % of control: 71.5
- viability (ATP), % of control: 40.8
- Outcome: inactive

2010106E10Rik #1
- GFP, % of control: 71.8
- viability (ATP), % of control: 80
- Outcome: inactive

2010106E10Rik #2
- GFP, % of control: 83.2
- viability (ATP), % of control: 83.3
- Outcome: inactive

2010106E10Rik #3
- GFP, % of control: 94.4
- viability (ATP), % of control: 103
- Outcome: inactive

Smarcal1 #1
- GFP, % of control: 57.8
- viability (ATP), % of control: 54.5
- Outcome: inactive

Smarcal1 #2
- GFP, % of control: 156
- viability (ATP), % of control: 80.4
- Outcome: active

Smarcal1 #3
- GFP, % of control: 85.7
- viability (ATP), % of control: 44.1
- Outcome: inactive

St8sia2 #1
- GFP, % of control: 93.6
- viability (ATP), % of control: 81.8
- Outcome: inactive

St8sia2 #2
- GFP, % of control: 139
- viability (ATP), % of control: 141
- Outcome: active

St8sia2 #3
- GFP, % of control: 101
- viability (ATP), % of control: 92.2
- Outcome: inactive

Tpst2 #1
- GFP, % of control: 35.3
- viability (ATP), % of control: 38.5
- Outcome: inactive

Tpst2 #2
- GFP, % of control: 90.1
- viability (ATP), % of control: 110
- Outcome: inactive

Tpst2 #3
- GFP, % of control: 18.1
- viability (ATP), % of control: 33.5
- Outcome: inactive

Srsf19 #1
- GFP, % of control: 132
- viability (ATP), % of control: 80
- Outcome: active

Srsf19 #2
- GFP, % of control: 26
- viability (ATP), % of control: 27.9
- Outcome: inactive

Srsf19 #3
- GFP, % of control: 101
- viability (ATP), % of control: 107
- Outcome: inactive

Lrrk1 #1
- GFP, % of control: 58
- viability (ATP), % of control: 66.2
- Outcome: inactive

Lrrk1 #2
- GFP, % of control: 128
- viability (ATP), % of control: 56.4
- Outcome: active

Lrrk1 #3
- GFP, % of control: 111
- viability (ATP), % of control: 61.4
- Outcome: inactive
